PubChem BioAssay AID1259254 | NCATS, 2017
In all, the deposit lists about 59,000 reagents; below is a random part of them. About 1,550 of all reagents (2.6%) count as active. 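G2 share is only a proxy for re-replication; each gene was hit by three separate siRNAs, and active genes were retested.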 Raw values vary from plate to plate and are shown uncorrected. Unmarked entries are inactive. Reagents against one gene are numbered here. Not stated in the record: the amount of reagent.

- Aim: 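Gene knock-downs that lead to re-replication, shown by excess G2 DNA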 (primary screen)
- Cell system: human HCT116 colorectal cancer cells
- Reagents: single siRNA against human genes
- Time to read-out: 3 days
- Read-out: 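Nuclei stained with Hoechst and imaged; cell-cycle phase assigned by DNA content; G2 share scaled per plate, non-targeting siRNA 0%, GMNN siRNA 100%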
- Reading the numbers: G2 robust z-score and G2 cells, % of GMNN control: higher = more G2 cells, more excess DNA replication; raw share of cells in G2: higher = larger share of cells with G2 DNA content
- Rule for the call: 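An siRNA counts as active if its G2 robust z-score lies at least 5 MADs above the screen median; here such calls match roughly 38% of GMNN control or more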

| gene symbol | siRNA no. | G2 robust z-score | G2 cells, % of GMNN control | raw share of cells in G2 (%) |
| --- | --- | --- | --- | --- |
| UBA3 | 1 | -1.15 | -5.12 | 2.87 |
| UBA3 | 2 | -0.0075 | 2.91 | 6.29 |
| UBA3 | 3 | -0.681 | -1.82 | 3.71 |
| C11orf96 | 1 | 0.221 | 4.52 | 5.32 |
| C11orf96 | 2 | -0.68 | -1.82 | 2.61 |
| C11orf96 | 3 | -0.239 | 1.29 | 5.19 |
| PTPRS | 1 | -0.275 | 1.04 | 5.13 |
| PTPRS | 2 | 0.189 | 4.3 | 5.6 |
| PTPRS | 3 | -0.121 | 2.12 | 4.13 |
| CEP170B | 1 | 1.29 | 12.1 | 8.04 |
| CEP170B | 2 | 0.747 | 8.22 | 6.22 |
| CEP170B | 3 | -0.417 | 0.0343 | 3.28 |
| GPR22 | 1 | 0.321 | 5.23 | 6.34 |
| GPR22 | 2 | -1.23 | -5.67 | 3.82 |
| GPR22 | 3 | 0.291 | 5.02 | 4.81 |
| INCENP | 1 | 14.2 (active) | 103 | 42.5 |
| INCENP | 2 | 11.4 (active) | 83.2 | 37.3 |
| INCENP | 3 | 14.5 (active) | 105 | 42.7 |
| KRTAP26-1 | 1 | -1.35 | -6.5 | 1.55 |
| KRTAP26-1 | 2 | 0.536 | 6.74 | 6.34 |
| KRTAP26-1 | 3 | 6.53 (active) | 48.9 | 25.6 |
| KRTAP5-9 | 1 | -0.621 | -1.4 | 4.38 |
| KRTAP5-9 | 2 | -0.721 | -2.1 | 3.39 |
| KRTAP5-9 | 3 | 1.1 | 10.7 | 7.21 |
| LDHC | 1 | -1.08 | -4.66 | 1.66 |
| LDHC | 2 | -0.531 | -0.77 | 5.06 |
| LDHC | 3 | 0.267 | 4.85 | 7.39 |
| CCNP | 1 | 3.84 | 30 | 16.9 |
| CCNP | 2 | 0.794 | 8.56 | 8.05 |
| CCNP | 3 | -0.537 | -0.812 | 2.16 |
| CALHM4 | 1 | 1.06 | 10.4 | 6.53 |
| CALHM4 | 2 | 0.537 | 6.74 | 6.02 |
| CALHM4 | 3 | -0.338 | 0.589 | 3.33 |
| BOK | 1 | 7.36 (active) | 54.8 | 23.4 |
| BOK | 2 | 1.46 | 13.3 | 9.79 |
| BOK | 3 | -0.499 | -0.544 | 3.79 |
| SOWAHC | 1 | -1.53 | -7.79 | 0.642 |
| SOWAHC | 2 | -0.534 | -0.792 | 4.24 |
| SOWAHC | 3 | 0.16 | 4.09 | 6.44 |
| CBY3 | 1 | -0.905 | -3.4 | 1.96 |
| CBY3 | 2 | -0.878 | -3.21 | 2.57 |
| CBY3 | 3 | 1.07 | 10.5 | 7.12 |
| LOC729696 (retired record) | 1 | -0.592 | -1.2 | 3.62 |
| LOC729696 (retired record) | 2 | 1.46 | 13.3 | 7.7 |
| LOC729696 (retired record) | 3 | -0.998 | -4.06 | 1.69 |
| GFRAL | 1 | -0.0557 | 2.58 | 4.66 |
| GFRAL | 2 | -0.247 | 1.23 | 3.94 |
| GFRAL | 3 | 0.0764 | 3.5 | 6.14 |
| PLBD2 | 1 | -0.605 | -1.29 | 3.14 |
| PLBD2 | 2 | 0.603 | 7.21 | 5.38 |
| PLBD2 | 3 | -0.544 | -0.864 | 2.49 |
| ALDH3A2 | 1 | 8.82 (active) | 65 | 26.9 |
| ALDH3A2 | 2 | -0.444 | -0.158 | 5.02 |
| ALDH3A2 | 3 | -0.0592 | 2.55 | 4.94 |
| MDH1 | 1 | 0.375 | 5.61 | 7.69 |
| MDH1 | 2 | -0.758 | -2.36 | 4.45 |
| MDH1 | 3 | 0.499 | 6.48 | 5.33 |
| MNX1 | 1 | -1.17 | -5.25 | 3.14 |
| MNX1 | 2 | -1.18 | -5.36 | 3.64 |
| MNX1 | 3 | -0.205 | 1.53 | 4.76 |
| PRSS1 | 1 | -0.45 | -0.198 | 5.49 |
| PRSS1 | 2 | -0.686 | -1.86 | 4.25 |
| PRSS1 | 3 | -0.758 | -2.37 | 3.03 |
| FGFBP3 | 1 | -0.875 | -3.19 | 2.76 |
| FGFBP3 | 2 | -0.637 | -1.51 | 2.45 |
| FGFBP3 | 3 | 1.81 | 15.7 | 8.54 |
| CELF4 | 1 | -1.17 | -5.26 | 4.12 |
| CELF4 | 2 | -0.352 | 0.494 | 4.62 |
| CELF4 | 3 | -0.493 | -0.501 | 4.12 |
